The record followed here is PMC10451225.

In this data set the target is T1, SoxR (Hyphomicrobium denitrificans) (UniProt D8JT35).
T1 sequence (looked up): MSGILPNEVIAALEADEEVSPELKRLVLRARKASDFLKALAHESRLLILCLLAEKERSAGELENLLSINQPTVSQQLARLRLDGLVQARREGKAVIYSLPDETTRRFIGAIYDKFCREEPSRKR
Kind of data set: EMSA. The note with it: EMSA: 10 mM Tris-HCl pH 8.0, 50 mM KCl, 1 mM DTT, about 7% glycerol, 17 nM DNA, 15 ul, 20 min at room temperature, then 30 min at 30 C with DNA, 6% native gel, 0.25x TBE, recombinant protein, residues 1-124, protein details: N-terminal Strep-tag (WSHPQFEK), probe letters rebuilt from the primers and the genome. In general terms: Mobility shift assays separate free from complexed probe on a gel.

Where a protein sequence is shown, tags need not be part of it. The exact form of at least one protein or probe is not confirmed. A weaker result is weaker than the reference pair of the same experiment. At least one verdict rests on a figure or table, not on a statement of the authors.

With “GGGTCACCAAATTCTGCAGGTCTCAATGCGAATGCGAGGCTGCTCCAGCTAGACGAAAAACAAGGAACGTTGCAATAGATAATTCACATATGATAATTTTCATATGTGTTATAGGATGAACGTTATCGCAGCTTCCGGGAGAGATGGCGTGAT (double strand) [soxA-soxY intergenic fragment, 151 bp]”, the binding result runs as follows: (DTT-reduced) “binds”; (polysulfide-treated, then DTT-reduced) “binds”; (thiosulfate, second shifted band lost at ratio 5, first persists at ratio 50 (0.2 mM)) “binds more weakly”.
For “TTCCCGCCCCGTCTTGGTTTTTGTTTTACTTGCCTACCGAATACGTTTTGCAGCGAAGCGCCCTTGAGGGCGCTCGATCTCTTCCGGTGAGGGTTCGTGTCGATTGTTCAGCGCTCGCCTGGAAGTCGGCGCCAGCTATTAGATATGAATATTCCTATATTCAAATATAAATCGCAACGGAAGCGCATCGTCAAGGCCGTGCTCCGTGGTGCGCTACGCATCACCGCGTACGTTTGAGAACACAGCTTTGCCCGAAAATATATAAAGATATGAATATGTTGATGCTTAGATTTGAGTTGCAAGCTCTCTGCTGCATCGGTAGGTGATTAGCGAATATTCACGCTTTTTTGGATGCAACTCCT (double strand) [soxT1A-shdrR intergenic region, 362 bp]”, the binding result (300 and 700 nM SoxR) is recorded as “binds”.
